Assay results from the M2OR odorant receptor database.
Residue numbers refer to the chain shown, from its start. Only a part is listed here, and it is no random draw. Calls are pooled over several reports, among them a noisy single-well screen. Some of the results follow.

Amino acid sequences for entries named in this document (tags omitted). A change or cut given only in a name is not applied to a line headed by its entry.
UniProt Q8NH02: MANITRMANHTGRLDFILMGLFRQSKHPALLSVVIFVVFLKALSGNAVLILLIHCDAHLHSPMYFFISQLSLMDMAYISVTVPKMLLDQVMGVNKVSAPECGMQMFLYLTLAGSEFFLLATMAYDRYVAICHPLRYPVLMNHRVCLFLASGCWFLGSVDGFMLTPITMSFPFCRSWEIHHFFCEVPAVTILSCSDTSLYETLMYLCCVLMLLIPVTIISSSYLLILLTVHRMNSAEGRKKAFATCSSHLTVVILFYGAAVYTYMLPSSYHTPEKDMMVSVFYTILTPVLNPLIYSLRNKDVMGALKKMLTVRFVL

Experiments:
Settings in all cases: stereoisomer not certain
[1] = test system: T1, OR2T1
T1 sequence (whole entry): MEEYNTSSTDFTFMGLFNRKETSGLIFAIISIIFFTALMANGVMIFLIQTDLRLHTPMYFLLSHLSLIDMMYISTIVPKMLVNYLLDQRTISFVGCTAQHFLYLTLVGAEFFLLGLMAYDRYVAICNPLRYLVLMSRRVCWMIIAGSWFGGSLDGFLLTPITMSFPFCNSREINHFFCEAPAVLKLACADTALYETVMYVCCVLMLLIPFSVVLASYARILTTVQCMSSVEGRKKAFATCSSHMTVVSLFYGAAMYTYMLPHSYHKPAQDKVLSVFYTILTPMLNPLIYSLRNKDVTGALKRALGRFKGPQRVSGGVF
In short: (§1)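 Each receptor–molecule pair is labelled responsive or non-responsive (inactive) according to whether the original authors judged the measured signal statistically different from baseline. The data were taken from the main text and supplementary material of published papers and checked for typos and inconsistencies. Assay methods differed by source, with transient luciferase assays in mammalian cell lines being common.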

[2] = test system: T2, OR2T2
T2 sequence (whole entry): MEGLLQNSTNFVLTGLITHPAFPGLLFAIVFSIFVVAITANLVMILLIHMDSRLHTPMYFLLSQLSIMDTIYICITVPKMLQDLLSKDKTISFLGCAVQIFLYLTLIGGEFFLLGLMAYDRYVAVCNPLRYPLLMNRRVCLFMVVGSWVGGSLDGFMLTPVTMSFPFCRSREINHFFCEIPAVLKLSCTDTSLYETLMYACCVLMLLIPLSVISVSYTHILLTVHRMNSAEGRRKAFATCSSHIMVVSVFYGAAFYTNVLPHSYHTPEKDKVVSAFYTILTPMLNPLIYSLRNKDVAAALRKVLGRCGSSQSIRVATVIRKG
In short: as §1

[3] = biological target: T3, OR2T3 (Homo sapiens) (UniProt Q8NH03)
T3 sequence (whole entry): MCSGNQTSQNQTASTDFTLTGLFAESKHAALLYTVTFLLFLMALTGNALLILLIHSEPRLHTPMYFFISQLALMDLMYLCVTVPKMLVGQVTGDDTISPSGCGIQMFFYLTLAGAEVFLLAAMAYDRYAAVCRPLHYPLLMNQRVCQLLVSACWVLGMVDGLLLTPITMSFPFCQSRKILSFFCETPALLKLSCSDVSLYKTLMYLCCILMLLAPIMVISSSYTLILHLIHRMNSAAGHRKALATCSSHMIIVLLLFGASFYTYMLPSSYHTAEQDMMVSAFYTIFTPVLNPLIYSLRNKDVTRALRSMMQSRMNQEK
In short: as §1

[4] = biological target: T4, OR2T4 (Homo sapiens) (UniProt Q8NH00)
T4 sequence (whole entry): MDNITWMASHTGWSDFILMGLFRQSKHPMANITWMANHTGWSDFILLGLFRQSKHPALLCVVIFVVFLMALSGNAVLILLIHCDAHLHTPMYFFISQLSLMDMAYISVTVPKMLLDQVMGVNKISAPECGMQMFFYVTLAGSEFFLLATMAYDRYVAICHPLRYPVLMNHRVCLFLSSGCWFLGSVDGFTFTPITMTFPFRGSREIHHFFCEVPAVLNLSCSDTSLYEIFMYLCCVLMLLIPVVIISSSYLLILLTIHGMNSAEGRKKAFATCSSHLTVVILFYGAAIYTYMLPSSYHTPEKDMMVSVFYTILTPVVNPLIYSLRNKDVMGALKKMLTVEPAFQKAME
In short: as §1

[5] = test system: T5, OR2T4
T5 sequence (whole entry): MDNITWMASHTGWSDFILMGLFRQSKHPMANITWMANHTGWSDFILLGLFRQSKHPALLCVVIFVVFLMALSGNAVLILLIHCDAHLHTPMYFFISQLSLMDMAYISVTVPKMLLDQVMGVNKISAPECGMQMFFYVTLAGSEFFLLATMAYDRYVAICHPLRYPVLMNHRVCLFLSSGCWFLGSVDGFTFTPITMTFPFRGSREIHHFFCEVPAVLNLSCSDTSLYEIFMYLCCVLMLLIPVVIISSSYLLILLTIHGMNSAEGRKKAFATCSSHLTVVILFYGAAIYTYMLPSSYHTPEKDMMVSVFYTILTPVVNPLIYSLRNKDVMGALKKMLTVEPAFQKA
In short: as §1

[6] = biological target: T6, OR2T34 (Homo sapiens) (UniProt Q8NGX1)
T6 sequence (whole entry): T3 sequence (whole entry) with Y109H, T202M, M204T, A214T, H239R, P267R
In short: as §1

[7] = biological target: OR2T29 (Homo sapiens) (UniProt Q8NH02)
In short: as §1

[8] = biological target: OR2T35 (Homo sapiens) (UniProt Q8NGX2)
In short: as §1
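Further: active if original authors judged signal statistically different from baseline.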

## CC1CCC(C(C)C)C(O)C1 (centres undefined)
[1]
  odorant receptor agonist call: inactive
[2]
  odorant receptor agonist call: inactive
[3]
  odorant receptor agonist call: inactive
[4]
  odorant receptor agonist call: inactive
[5]
  odorant receptor agonist call: inactive

## CCCCCCCC=O
[1]
  odorant receptor agonist call: inactive
[2]
  odorant receptor agonist call: inactive
[3]
  odorant receptor agonist call: inactive
[4]
  odorant receptor agonist call: inactive
[5]
  odorant receptor agonist call: inactive

## CCCCCCCCOC(C)=O
[1]
  odorant receptor agonist call: inactive
[2]
  odorant receptor agonist call: inactive
[3]
  odorant receptor agonist call: inactive
[5]
  odorant receptor agonist call: inactive

## CC(C)CC(=O)O
[1]
  odorant receptor agonist call: inactive
[2]
  odorant receptor agonist call: inactive
[3]
  odorant receptor agonist call: inactive
[4]
  odorant receptor agonist call: inactive
[5]
  odorant receptor agonist call: inactive

## c1cnccn1
[1]
  odorant receptor agonist call: inactive
[2]
  odorant receptor agonist call: inactive
[3]
  odorant receptor agonist call: inactive
[5]
  odorant receptor agonist call: inactive

## CC(=O)OC1CC2CCC1(C)C2(C)C (centres undefined)
[1]
  odorant receptor agonist call: inactive
[2]
  odorant receptor agonist call: inactive
[3]
  odorant receptor agonist call: inactive
[6]
  odorant receptor agonist call: inactive
[5]
  odorant receptor agonist call: inactive

## CC12CCC(C1)C(C)(C)C2=O (centres undefined)
[1]
  odorant receptor agonist call: inactive
[2]
  odorant receptor agonist call: inactive
[3]
  odorant receptor agonist call: inactive
[5]
  odorant receptor agonist call: inactive

## c1ccc(Oc2ccccc2)cc1
[1]
  odorant receptor agonist call: inactive
[2]
  odorant receptor agonist call: inactive
[3]
  odorant receptor agonist call: inactive
[5]
  odorant receptor agonist call: inactive

## O=C1CCCCCCCCCCCCCCO1
[1]
  odorant receptor agonist call: inactive
[2]
  odorant receptor agonist call: inactive
[3]
  odorant receptor agonist call: inactive
[6]
  odorant receptor agonist call: inactive
[5]
  odorant receptor agonist call: inactive

## CC12C=CCC1C1CCC3CC(=O)CCC3(C)C1CC2 (centres undefined)
[1]
  odorant receptor agonist call: inactive
[7]
  odorant receptor agonist call: inactive
[2]
  odorant receptor agonist call: inactive
[3]
  odorant receptor agonist call: inactive
[6]
  odorant receptor agonist call: inactive
[8]
  odorant receptor agonist call: inactive
[4]
  odorant receptor agonist call: inactive
[5]
  odorant receptor agonist call: inactive

## CCCCCC(C)=O
[1]
  odorant receptor agonist call: inactive
[3]
  odorant receptor agonist call: inactive
[6]
  odorant receptor agonist call: inactive
[5]
  odorant receptor agonist call: active

## O=C1CCCCC1
[1]
  odorant receptor agonist call: inactive
[3]
  odorant receptor agonist call: inactive
[5]
  odorant receptor agonist call: inactive

## CC(C)(O)CCCC1=CCC(C=O)CC1 (centres undefined)
[2]
  odorant receptor agonist call: inactive
[4]
  odorant receptor agonist call: inactive

## CC(=O)c1ccccc1
[1]
  odorant receptor agonist call: inactive
[3]
  odorant receptor agonist call: inactive
[5]
  odorant receptor agonist call: active

## COC(=O)c1ccccc1
[1]
  odorant receptor agonist call: inactive
[3]
  odorant receptor agonist call: inactive
[5]
  odorant receptor agonist call: inactive

## C=CCc1ccc(OC)c(OC)c1
[1]
  odorant receptor agonist call: inactive
[2]
  odorant receptor agonist call: inactive
[3]
  odorant receptor agonist call: inactive
[5]
  odorant receptor agonist call: inactive

## CCCCCOC(C)=O
[1]
  odorant receptor agonist call: inactive
[2]
  odorant receptor agonist call: inactive
[3]
  odorant receptor agonist call: inactive
[5]
  odorant receptor agonist call: inactive

## COC(=O)c1ccccc1O
[1]
  odorant receptor agonist call: inactive
[2]
  odorant receptor agonist call: inactive
[3]
  odorant receptor agonist call: inactive
[5]
  odorant receptor agonist call: inactive

## C=C(C)C1CC=C(C)C(=O)C1 (centres undefined)
[4]
  odorant receptor agonist call: inactive

## CC1COCc2cc3c(cc21)C(C)(C)C(C)C3(C)C (centres undefined)
[1]
  odorant receptor agonist call: active
[2]
  odorant receptor agonist call: inactive
[3]
  odorant receptor agonist call: active
[5]
  odorant receptor agonist call: active

## CC1=CCC(C(C)(C)O)CC1 (centres undefined)
[1]
  odorant receptor agonist call: inactive
[2]
  odorant receptor agonist call: inactive
[3]
  odorant receptor agonist call: inactive
[5]
  odorant receptor agonist call: inactive

## CC(C)C(=O)O
[1]
  odorant receptor agonist call: inactive
[2]
  odorant receptor agonist call: inactive
[3]
  odorant receptor agonist call: inactive
[5]
  odorant receptor agonist call: inactive

## COc1cc(C)ccc1O
[1]
  odorant receptor agonist call: inactive
[2]
  odorant receptor agonist call: inactive
[3]
  odorant receptor agonist call: inactive
[5]
  odorant receptor agonist call: inactive

## CC(C)CCC(=O)O
[1]
  odorant receptor agonist call: inactive
[2]
  odorant receptor agonist call: inactive
[3]
  odorant receptor agonist call: inactive
[5]
  odorant receptor agonist call: inactive

## CC(C)=CCCC(C)=CC=O
[1]
  odorant receptor agonist call: inactive
[2]
  odorant receptor agonist call: inactive
[3]
  odorant receptor agonist call: inactive
[5]
  odorant receptor agonist call: inactive

## C=C(C)C1CCC2=CC(=O)CC(C)C2(C)C1 (centres undefined)
[2]
  odorant receptor agonist call: active

## C=CCc1ccc(O)c(OC)c1
[4]
  odorant receptor agonist call: inactive

## C=CCSCC=C
[1]
  odorant receptor agonist call: inactive
[2]
  odorant receptor agonist call: inactive
[3]
  odorant receptor agonist call: inactive
[5]
  odorant receptor agonist call: inactive

## CC=Cc1ccc(O)c(OC)c1
[1]
  odorant receptor agonist call: active
[2]
  odorant receptor agonist call: active
[3]
  odorant receptor agonist call: inactive
[5]
  odorant receptor agonist call: inactive

## CCCCCCOC(=O)CCC
[1]
  odorant receptor agonist call: inactive
[2]
  odorant receptor agonist call: inactive
[3]
  odorant receptor agonist call: inactive
[5]
  odorant receptor agonist call: inactive

## CCCCCCCCCC=O
[1]
  odorant receptor agonist call: inactive
[2]
  odorant receptor agonist call: inactive
[3]
  odorant receptor agonist call: inactive
[5]
  odorant receptor agonist call: inactive

## O=CCc1ccccc1
[1]
  odorant receptor agonist call: inactive
[2]
  odorant receptor agonist call: active
[3]
  odorant receptor agonist call: inactive
[5]
  odorant receptor agonist call: inactive

## CCCCCCCC=CC=O
[1]
  odorant receptor agonist call: inactive
[2]
  odorant receptor agonist call: inactive
[3]
  odorant receptor agonist call: inactive
[5]
  odorant receptor agonist call: inactive

## O=C1CCCCCCCCCCCC(=O)OCCO1
[1]
  odorant receptor agonist call: inactive
[2]
  odorant receptor agonist call: inactive
[3]
  odorant receptor agonist call: inactive
[5]
  odorant receptor agonist call: inactive

## CC1=NC(C)SC1C (centres undefined)
[1]
  odorant receptor agonist call: inactive
[3]
  odorant receptor agonist call: inactive
[5]
  odorant receptor agonist call: inactive

## CCCCCCCOC(C)=O
[1]
  odorant receptor agonist call: inactive
[2]
  odorant receptor agonist call: inactive
[3]
  odorant receptor agonist call: inactive
[5]
  odorant receptor agonist call: inactive

## CCCCCCCCC=O
[4]
  odorant receptor agonist call: inactive
